Measurements as given in the supplement of paper PMC6411743.
± gives the standard deviation of the averaged measurements. The list shows a part of the results.

Biological target: T1, UniProt Q9NSI8 and related entries
T1 sequence (whole entry): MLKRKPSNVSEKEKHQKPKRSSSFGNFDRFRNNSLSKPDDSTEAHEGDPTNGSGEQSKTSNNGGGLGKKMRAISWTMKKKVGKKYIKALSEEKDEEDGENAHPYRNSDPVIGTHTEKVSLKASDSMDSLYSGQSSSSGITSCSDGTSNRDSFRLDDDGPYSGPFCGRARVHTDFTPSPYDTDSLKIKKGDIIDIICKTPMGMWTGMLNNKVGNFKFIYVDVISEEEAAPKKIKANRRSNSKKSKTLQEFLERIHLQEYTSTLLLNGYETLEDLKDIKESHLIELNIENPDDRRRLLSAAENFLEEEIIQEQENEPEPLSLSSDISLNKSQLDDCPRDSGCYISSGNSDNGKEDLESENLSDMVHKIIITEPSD
Test: NP40-soluble protein abundance relative to vehicle (solubility fold change) (ratio); higher = more soluble protein in presence of GTP
Method: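 Solubility proteome profiling in Jurkat crude lysate. Lysate was treated with Mg-GTP (0.1-10 mM) for 10 min at room temperature and 3 min at 37 °C, then solubilised with 0.8% NP40 and benzonase, followed by ultracentrifugation. Proteins were quantified by TMT10 LC-MS/MS; the value is the NP40-soluble abundance relative to the NP40-processed vehicle, from 3 independent experiments.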

Nc1nc2c(ncn2[C@@H]2O[C@H](COP(=O)(O)OP(=O)(O)OP(=O)(O)O)[C@@H](O)[C@H]2O)c(=O)[nH]1 [guanosine triphosphate]
NP40-soluble protein abundance (concentration: 0.1mM): 0.968 ± 0.085
NP40-soluble protein abundance (concentration: 0.5mM): 0.961 ± 0.12
NP40-soluble protein abundance (concentration: 1mM): 0.977 ± 0.13
NP40-soluble protein abundance (concentration: 2mM): 0.924 ± 0.14
NP40-soluble protein abundance (concentration: 4mM): 0.932 ± 0.13
NP40-soluble protein abundance (concentration: 6mM): 0.93 ± 0.15
NP40-soluble protein abundance (concentration: 8mM): 0.891 ± 0.1
NP40-soluble protein abundance (concentration: 10mM): 0.915 ± 0.16
